Among the data in PubChem BioAssay AID2685 (National Center for Advancing Translational Sciences (NCATS), 2010) are cell number change and AC50 values, retold here.

The list shows a part of the results. Shown are side measurements of this screen, not its main read-out; they come without a call. Most of these compounds were active or inconclusive in the main read-out, so they are no random draw. Potencies come from curve fits of mixed quality, noted in brackets.

This experiment in a line: qHTS Assay for Lipid Storage Modulators in Drosophila S3 Cells.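 On cell number change: cells counted by Cell Tracker Red CMTPX staining in the red channel.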 To be noted: BODIPY lipid droplet fluorescence, 18-24 h; for cell number change: measured here: cell count max response, cells fed with added oleic acid. The gist of the method:
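Laser-scanning cytometry quantifies lipid droplet accumulation (500–530 nm total intensity; droplet/cell object ratio) in oleic acid-fed (400 uM added) Drosophila S3 cells treated with a concentration series. 20 uM Triacsin C defined 100% inhibition.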

Setting [1] is: measured here: cell number channel AC50, cells fed with added oleic acid.
[2] abbreviates: measured here: lipid fluorescence (Fed channel) AC50, cells fed with added oleic acid.

For `CC(=O)c1ccc(NC(=O)C2CCCN2S(=O)(=O)c2ccc(F)cc2)cc1` (centres undefined), the cell number change came out at 32.1%. Also, the AC50 (in general, the concentration at which the activity in the assay is half-maximal) under setting [1] is 16.4 µM [rising, single point]. Further, the AC50 under setting [2] is 1.16 µM [rising, single point].

For the compound `NC(=O)CSc1nnc(-c2ccc3c(c2)OCO3)o1`, the cell number change was -1.78%. Moreover, the AC50 under setting [2] is 7.31 µM [rising, partial curve, poor fit].

Regarding `Cc1ccc(/C=N/NC(=O)c2ccc(Br)o2)s1`, the AC50 under setting [2] is 1.46 µM [falling, partial curve].

For the compound `Cc1csc2nc(COC(=O)c3cccc(N(C)C)c3)cc(=O)n12`, the cell number change turned out to be 0.306%.

For the compound `CCCCc1nnc(NC(=O)Cc2ccc(OC)c(S(=O)(=O)N3CCOCC3)c2)s1`, the cell number change was -35.4%. In addition, the AC50 under setting [1] is 1.3 µM [falling, partial curve]. Further, the AC50 under setting [2] was 1.46 µM [falling, partial curve].

Take `O=C(CCSCCC(=O)NCc1ccc(F)cc1)NCc1ccc(F)cc1`: under setting [2], the AC50 was 3.26 µM [rising, full curve].

With `CCCNC(=O)N1CCC(c2nc3ccccc3s2)CC1`, the cell number change is 20.2%. Moreover, the AC50 under setting [2] was 1.64 µM [rising, full curve, poor fit].

Turning to `O=C(CSc1nnc(-c2cccnc2)n1CCc1ccccc1)N1CCCCC1`, the cell number change worked out at 4.23%. Besides, under setting [2], the AC50 is 2.59 µM [rising, full curve, poor fit].

Regarding `Cc1ccc(NC(=O)c2ccc(NS(=O)(=O)c3c(C)noc3C)cc2)cc1C`, the cell number change was -15.8%. Further, the AC50 under setting [2] was 7.31 µM [falling, partial curve, poor fit].

As to `Cc1ccc(C(C(=O)NC2CCCCC2)N(C(=O)c2csnn2)c2ccccc2F)o1` (centres undefined), the cell number change amounted to 4.62%.

As to `CCOc1ccc(-n2cc(-c3ccccc3)c3c(=S)nc[nH]c32)cc1`, under setting [2], the AC50 is 0.13 µM [rising, full curve, poor fit].

Regarding `CSCc1c(C(=O)Nc2ccc(N3CCOCC3)cc2)oc2ccccc12`, the cell number change was determined as 113%. Moreover, the AC50 under setting [1] was 29.1 µM [rising, single point]. Besides, the AC50 under setting [2] was 0.58 µM [rising, single point].

On to `OCC#CCSc1nnc(-c2ccncc2)o1`, for which, under setting [1], the AC50 was 0.013 µM [rising, full curve, poor fit].

`Cc1nc2ncnn2c(C)c1CCC(=O)N1CCCCC1`: the cell number change was -9.38%. Further, under setting [1], the AC50 was 0.92 µM [falling, partial curve]. In addition, the AC50 under setting [2] was 1.84 µM [falling, partial curve].

For `COc1ccc(CCNC(=O)CS(=O)(=O)Cc2nc(-c3ccc(C)cc3)oc2C)cc1OC`, the cell number change is 2.42%. For the same compound, the AC50 under setting [2] was 11.6 µM [rising, partial curve].

On to `CC(=O)Oc1ccc(-c2cccc(C(=O)N(C)c3ccc(O)cc3)c2)cc1`, for which the cell number change came out at 31.6%. Also, the AC50 under setting [1] is 4.11 µM [rising, single point]. Under setting [2], the AC50 was 6.51 µM [rising, single point].

Consider `Cc1ccc(-n2nnc3c(=O)n(CC(=O)c4ccccc4)cnc32)cc1`, for which the cell number change was 11.5%. Further, the AC50 under setting [2] is 0.731 µM [falling, full curve, poor fit].

On to `CCc1nn(C(CC)C(=O)NCc2cccc(OC)c2OC)c(=O)c2cc3occc3n12` (centres undefined), for which the AC50 under setting [2] is 8.2 µM [falling, partial curve].

Turning to `NC(=O)CC(NC(=O)Cc1cccc2ccccc12)c1ccc(N2CCN(c3ccccn3)CC2)c([N+](=O)[O-])c1` (centres undefined), the cell number change was -29.6%. For the same compound, under setting [2], the AC50 was 29.1 µM [falling, single point].

`C=CCN1C(=O)C(CC(=O)O)SC1=Nc1c(C)n(C)n(-c2ccccc2)c1=O` (centres undefined): the cell number change was found to be 0.361%. Moreover, under setting [2], the AC50 was 29.1 µM [rising, single point].

`Cc1cccc(/C=C2\Sc3ccc(C(=O)N4CCC(C(N)=O)CC4)cc3N(C)C2=O)c1`: the cell number change was 0.943%.

With `O=C(c1ccc2c(=O)n(Cc3ccco3)c(=S)[nH]c2c1)N1CCN(Cc2ccccc2)CC1`, the cell number change turned out to be 5.48%.

`C/C(=N\NC(=O)COc1ccccc1[N+](=O)[O-])c1cccc(NC(=O)c2ccncc2)c1`: the cell number change is -46.1%. Moreover, the AC50 under setting [1] is 13 µM [falling, partial curve]. Besides, the AC50 under setting [2] is 10.3 µM [falling, partial curve].

With `CCOC(=O)C1=C(O)C(=O)N(Cc2cccnc2)C1c1ccc(C)cc1` (centres undefined), the cell number change came out at 95.1%. Moreover, under setting [1], the AC50 is 29.1 µM [rising, single point]. In addition, under setting [2], the AC50 is 29.1 µM [rising, single point].

On to `O=c1oc2ccccc2cc1-c1nnc(-c2cccc(Br)c2)o1`, for which the cell number change is -1.42%.

Turning to `N#CC1=C(SCC(=O)Nc2ccccc2)NC(=O)CC1c1ccc(O)cc1` (centres undefined), the cell number change worked out at 15.9%. Moreover, under setting [2], the AC50 was 16.4 µM [rising, partial curve].

In the case of `CCOC(=O)c1cc2c(=O)n3cc(C)ccc3nc2n(Cc2cccnc2)c1=N`, the cell number change amounted to 8.36%. The AC50 under setting [2] was 1.3 µM [rising, partial curve].

For `N/C(=N\OC(=O)c1ccc(Cl)c(Cl)c1)c1cccnc1`, the cell number change was -46.9%. The AC50 under setting [1] is 25.9 µM [falling, single point].

For `COCc1nc(-c2ccc(-c3ccccc3)nc2OC)no1`, the AC50 under setting [2] was 10.3 µM [falling, partial curve, poor fit].

Take `O=[N+]([O-])c1ccccc1S(=O)(=O)Nc1ccn(Cc2c(F)cccc2Cl)n1`: the cell number change was -8.42%. In addition, the AC50 under setting [2] was 29.1 µM [rising, single point].

As for `N#Cc1c(N)c(C#N)c(-c2ccc(O)cc2)c2c1CCCC2`, the cell number change is -21.3%. Besides, the AC50 under setting [2] was 0.259 µM [falling, partial curve, poor fit].

Consider `COc1ccccc1N1CCN(c2nc3ccccn3c(=O)c2C=O)CC1`, for which the AC50 under setting [1] is 0.146 µM [rising, full curve, poor fit].

As for `COc1ccc(C(=O)Nc2ccc3c(c2)OCCO3)cc1[N+](=O)[O-]`, the cell number change stood at 15.3%.

For the compound `O=C(Nc1ccc(NC(=O)c2ccccc2Cl)nc1)c1ccco1`, the cell number change was -3.95%. The AC50 under setting [2] is 3.55 µM [falling, partial curve].

Regarding `O=C(N/C(=C/C=C/c1ccccc1)C(=O)N1CCOCC1)c1ccccc1Br`, the cell number change is -6.61%. The AC50 under setting [1] is 6.51 µM [rising, single point].

Turning to `CCOC(=O)c1ccc(NC(=S)NC(=O)COc2ccccc2)cc1`, the cell number change worked out at 21.6%. Besides, the AC50 under setting [1] is 0.13 µM [rising, full curve, poor fit]. For the same compound, under setting [2], the AC50 was 23.1 µM [rising, single point].

`CC1CN(S(=O)(=O)c2cccc(C(=O)Nc3ccc4c(c3)CCC4)c2)CC(C)O1` (centres undefined): the AC50 is, setting by setting: under setting [1], 2.06 µM [rising, partial curve]; under setting [2], 2.31 µM [rising, partial curve].
